At least one compound was matched to its structure with a doubt left.
Test: Predicted drug concentration analysis with a solution to Fick's Second Law: macula and aqueous humour concentrations by implant position
Set-up: species or system human
Conditions: implant 4 mm deeper into the vitreous vs standard applicator, 13 days

In the case of C[C@@H]1C[C@H]2[C@@H]3CCC4=CC(=O)C=C[C@]4(C)[C@@]3(F)[C@@H](O)C[C@]2(C)[C@@]1(O)C(=O)CO [dexamethasone], the “increase of macula concentration” value was 12 fold.

Source: US8571802B2, “Method for determining optimum intraocular locations for drug delivery systems” (Allergan, Inc., priority 2006, dated 2013)
